# Laboratory results reported in PubChem BioAssay AID1671190 (National Center for Advancing Translational Sciences (NCATS), 2021).
# By UniProt entry, the sequences of proteins in these tests, tags left out. Where a name states a change or a piece, a line headed by the entry shows the natural chain unless it says otherwise.
# UniProt P18054: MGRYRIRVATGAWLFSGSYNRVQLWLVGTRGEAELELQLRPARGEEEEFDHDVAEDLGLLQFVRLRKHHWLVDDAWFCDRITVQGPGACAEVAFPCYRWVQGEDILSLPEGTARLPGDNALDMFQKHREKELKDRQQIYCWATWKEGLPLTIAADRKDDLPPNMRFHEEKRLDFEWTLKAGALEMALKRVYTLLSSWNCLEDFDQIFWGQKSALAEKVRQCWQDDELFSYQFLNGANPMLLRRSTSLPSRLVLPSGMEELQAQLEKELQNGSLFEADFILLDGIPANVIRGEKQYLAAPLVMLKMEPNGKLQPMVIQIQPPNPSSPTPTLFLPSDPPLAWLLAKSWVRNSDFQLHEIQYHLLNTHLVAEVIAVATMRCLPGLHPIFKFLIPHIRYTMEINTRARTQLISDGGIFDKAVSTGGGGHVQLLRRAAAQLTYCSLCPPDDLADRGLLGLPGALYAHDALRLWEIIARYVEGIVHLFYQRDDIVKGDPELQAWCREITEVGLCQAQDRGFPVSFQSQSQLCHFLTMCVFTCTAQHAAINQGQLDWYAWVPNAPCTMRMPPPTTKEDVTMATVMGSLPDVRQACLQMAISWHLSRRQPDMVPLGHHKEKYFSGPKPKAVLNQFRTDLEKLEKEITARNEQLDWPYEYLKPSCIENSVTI
# Screen size: about 580,000 compounds; about 6,100 (1.1%) were called active. The shares of active, inactive and inconclusive entries below differ from those in the screen. Calls follow the shape of the dose curve; as a rule, active = well fitted inhibition curve with a large enough effect; inconclusive = small, poorly fitted or top-dose-only effect, or another doubt; inactive = no such curve, though single readings can be large or run the other way. Potencies of inconclusive entries are doubtful fits and often do not repeat.
# Biological target: Polyunsaturated fatty acid lipoxygenase ALOX12 (Homo sapiens) (UniProt P18054)
# Experiment: Primary qHTS assay for inhibitors of human arachidonate 12S-lipoxygenase (ALOX12): Round 2
# Conditions: purified 12hLO, xylenol orange hydroperoxide absorbance; activity change, negative = inhibition: at 108 µM (top of the series) unless noted
# Procedure, shortened: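 Purified human 12hLO at 150 nM in 25 mM Hepes, 0.01% Triton X-100, pH 7.0, preincubated 15 min at room temperature with compound. Reaction started with 40 uM arachidonic acid, 30 min at room temperature. Hydroperoxide measured by Fe-xylenol orange, 573/405 nm absorbance ratio.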
# % is scaled to controls: 0 for no effect and ±100 for the full control effect; potency is read from the fitted curve at half-maximal effect.
Structure (SMILES),Potency,"activity change, negative = inhibition"
CC(C)CC(NC(=O)C1=NNC(=O)CC1)c1nnc2n1CCNCC2 (stereo not drawn),"inconclusive: 1.12 µM [inhibitor, full curve]",
Cc1cccc(C)c1OCc1cn(CC(=O)c2ccc(O)cc2)nn1,"inconclusive: 0.398 µM [inhibitor, full curve, poor fit]",
Cc1cccc(N2CCN(C(=O)c3ccc(CS(=O)c4cccc(Cl)c4)o3)CC2)c1C (stereo not drawn),"inconclusive: 126 µM [inhibitor, partial curve, poor fit]",
CC[C@]12c3[nH]c4ccc(Cl)cc4c3CCN1C(=O)[C@@H](CC(=O)NC/C=C(\C)CCC=C(C)C)C[C@@H]2C(=O)N1CCN(C(=O)c2ccco2)CC1,"inconclusive: 22.4 µM [inhibitor, partial curve, poor fit]",
CN1/C(=C\C(=O)Nc2ccc(Cl)cc2)C(C)(C)c2ccccc21,,inactive: -29.8%
Cc1cccc(NC(=O)CSCC(=O)Nc2cc(S(=O)(=O)N3CCOCC3)ccc2OC(C)C)c1,,inactive: -9.85%
N#C/C(=C\c1ccc(O)cc1)C(=O)NCc1cccc(Cl)c1,"inconclusive: 35.5 µM [inhibitor, partial curve, poor fit]",
O=C(C1CC1)N1CCc2cc(Br)cc(S(=O)(=O)NC3CCCCC3)c21,,inactive: 0%
Cc1cc(=O)n(CC(=O)Nc2cccc(C(C)C)c2)c(N2CCc3ccccc3C2)n1,"inconclusive: 44.7 µM [inhibitor, partial curve]",
CC(OC(=O)c1ccc2ccccc2n1)C(=O)NC1(C#N)CCCCC1 (stereo not drawn),"inconclusive: 79.4 µM [inhibitor, partial curve, poor fit]",
CCO[C@H]1OC(C(=O)NCc2ccccc2)=C[C@@H](C2CCCCC2)[C@@H]1CCCO,"inconclusive: 126 µM [inhibitor, single point]",
COc1ccc(OCCSC2=NCC(C)(C)CN2)cc1,active: 35.5 µM,
Cc1cccc(NC(=O)CNC(=O)c2sc3ccccc3c2Cl)n1,,inactive: -5.06%
O=C(NCCc1ccc(Cl)cc1)C1CCN(S(=O)(=O)c2ccc(Br)s2)CC1,,inactive: 1.07%
Cc1ccc(SC(C)C(=O)NCc2ccncc2)cc1 (stereo not drawn),"inconclusive: 79.4 µM [inhibitor, partial curve, poor fit]",
Clc1cccc(-c2nnc(SC/C=C/c3ccccc3)n2Cc2ccco2)c1,"inconclusive: 44.7 µM [inhibitor, partial curve]",
Nc1ccc(-c2cc3ccccc3oc2=O)cc1,,inactive: 2.33%
Cc1cc(CNC(=O)c2cccc3c2C(=O)c2ccc(-c4ccc(F)cc4OCc4ccccc4)cc2S3(=O)=O)c(C(F)(F)F)o1,active: 44.7 µM,
CCOCCCNc1nc2c(C)cccn2c(=O)c1/C=C1\SC(=S)N(C(C)CC)C1=O (stereo not drawn),"inconclusive: 89.1 µM [inhibitor, partial curve, poor fit]",
Cc1onc(-c2ccccc2Cl)c1C(=O)N1CCCC1,,inactive: -10.7%
COc1cc2cc(CN(CCc3cccc(C)c3)C(=S)NCCCN(C)C)c(=O)[nH]c2cc1OC,"inconclusive: 112 µM [inhibitor, partial curve, poor fit]",
O=C(c1ccc(F)cc1)N1CCC2(C1)C(=O)N(CCc1ccccc1)c1ccccc12 (stereo not drawn),inactive,

Structure (SMILES),Potency,"activity change, negative = inhibition"
COc1ccccc1-c1nc2c(c(SCC(=O)N3CCCCC3)n1)Cc1c(CO)cnc(C)c1O2,"inconclusive: 50.1 µM [inhibitor, partial curve, poor fit]",
Cc1ccc2[nH]c(=O)c(CCC(=O)NC3CCN(Cc4ccccc4)CC3)cc2c1,"inconclusive: 14.1 µM [inhibitor, full curve]",
Cc1cc(C)c(CC(=O)c2ccccc2)c(C)c1,"inconclusive: 10 µM [inhibitor, full curve]",
CC1CCCCC12NC(=O)N(CC(=O)Nc1nccs1)C2=O (stereo not drawn),"inconclusive: 79.4 µM [inhibitor, single point]",
COc1ccccc1CNC(=O)C1CC2Cn3c(nc4cc(Cl)c(Cl)cc43)C2N1C (stereo not drawn),active: 11.2 µM,
COC[C@@H]1CCCN1[C@@H]1CS(=O)(=O)N[C@H]1COCc1ccccc1,"inconclusive: 112 µM [inhibitor, single point]",
CCN1CCN(CC(=O)Nc2cc3c(cc2C(C)=O)OCO3)CC1,"inconclusive: 6.31 µM [inhibitor, full curve]",
COc1ccc(C)cc1NC(=O)C1CCCN(S(=O)(=O)c2cccnc2)C1 (stereo not drawn),,inactive: 13.2%
CC(=O)N1CCNc2cc(Nc3cccc(N(C)C)c3)ncc2C1,"inconclusive: 35.5 µM [inhibitor, full curve, poor fit]",
Cc1ccc(C(=O)N/C(=C/c2ccco2)C(=O)N2CCC(C)CC2)cc1,"inconclusive: 44.7 µM [inhibitor, partial curve, poor fit]",
COc1cc(NC(=O)Cn2nnc(-c3ccc(C(F)(F)F)cc3)n2)c(C(=O)O)cc1OC,"inconclusive: 63.1 µM [inhibitor, partial curve, poor fit]",
Cc1ccc(OCC(=O)Nc2ccc(C)c(S(=O)(=O)N3CCCCC3)c2)c([N+](=O)[O-])n1,"inconclusive: 35.5 µM [inhibitor, partial curve, poor fit]",
c1nc(NC2CCNCC2)c2cc(-c3ccoc3)ccc2n1,"inconclusive: 3.55 µM [inhibitor, full curve, poor fit]",
CCOC(=O)c1ccc(Nc2c(OCC)c(=O)c2=O)cc1,"inconclusive: 25.1 µM [inhibitor, single point]",
O=C(Cc1cccc2ccccc12)NCCc1ccccn1,"inconclusive: 100 µM [inhibitor, single point]",
Cc1ccc(NC(=O)N(CCCN2CCOCC2)Cc2cccnc2)cc1C,"inconclusive: 126 µM [inhibitor, single point]",
O=C(O)/C=C/C(=O)Nc1nccs1,,inactive: 0.889%
CCCNC(=O)CSc1nc(-c2cccs2)cc(C(F)(F)F)n1,,inactive: -17.8%
COc1ccc(-c2noc(N3CCC(C(=O)N4CCN(c5ccccn5)CC4)CC3)n2)cc1,,inactive: -0.374%
NC(N)=N/N=C/C=C/c1ccccc1,,inactive: -1.26%
O=C(N1CCCCC1)N1CCCC1c1nnc2n1CCNC2 (stereo not drawn),"inconclusive: 7.94 µM [inhibitor, full curve, poor fit]",

# Two entries from above, as tab-separated lines:
Structure (SMILES)	Potency	activity change, negative = inhibition
COC[C@@H]1CCCN1[C@@H]1CS(=O)(=O)N[C@H]1COCc1ccccc1	inconclusive: 112 µM [inhibitor, single point]	
CCN1CCN(CC(=O)Nc2cc3c(cc2C(C)=O)OCO3)CC1	inconclusive: 6.31 µM [inhibitor, full curve]	
